{"source": "the supplement of paper PMC10338343", "note": "± gives the standard deviation. The entries are a selection whose mix differs from that of the whole data set. The uncertainty is large for many entries."}
{"tested_on": "MILI (PIWIL2) piRISC loaded with L1MC piRNA (26 nt)", "assay": "pre-steady-state target cleavage rate (min^-1); higher = faster piRNA-guided slicing of the target", "details": "guide: L1MC piRNA 5'p-UAACUAAAUACUAUGCAAGCUGUAGG; auxiliary factor: 500 nM mouse GTSF1", "experimental": "(§1)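 Cleave-'n-Seq: a library of target RNAs (target site embedded in constant flanks, ACAGCATTCCGCGTTAGTGATATCCG... 5' flank; DNA-blocked outside the site) at 0.1 nM was incubated with 1 nM active mouse MILI or MIWI piRISC (synthetic 5'-monophosphorylated piRNA guide) with or without 500 nM mouse GTSF1 at 33 °C for 1 min to 16 h. Uncleaved targets were sequenced and normalised to non-target controls, and the pooled three trials were fitted to a burst-and-steady-state model to give the pre-steady-state cleavage rate (min^-1; k3 is constrained to at most 1e-4). Sequence is the target site only; target names encode pairing extent (gX:gY) and contiguous / 1-mismatch / 2-mismatch / bulge geometry. Fits with R² ≤ 0 are excluded.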"}
{"sequence": "UCCUGGAUGUCGUUGCAUAGUAUUUUCAAA [g6:g18:cont:t1A]", "pre-steady-state target cleavage rate": "0.00256 ± 0.0059"}
{"sequence": "UCCUGCUACAGCUUGCAUAGUAUUUUAGUUA", "pre-steady-state target cleavage rate": "0.283 ± 0.023"}
{"sequence": "UCCUGGAUGAGCUUGCAAAGUAUUUAGUUA", "pre-steady-state target cleavage rate": "0.0794 ± 0.011"}
{"sequence": "UCCUGGAUGUCGUUGCAUAGUAUUAUCAAA [g7:g18:cont:t1A]", "pre-steady-state target cleavage rate": "0.00201 ± 0.0056"}
{"sequence": "UCCUGGAUGUCGAACCAUAUUAUUUAGUUA", "pre-steady-state target cleavage rate": "0.000481 ± 0.015"}
{"sequence": "UCCUGGAUGUCGAUGACAUAGUAUUUAGUUA", "pre-steady-state target cleavage rate": "0.015 ± 0.0059"}
{"sequence": "UCCUGGUACAGCUAGCAUAGUUUUUAGUUA", "pre-steady-state target cleavage rate": "0.0495 ± 0.011"}
{"sequence": "UCCUGCUACAUCUUGCAUAGUAUUUAGUUA", "pre-steady-state target cleavage rate": "0.239 ± 0.02"}
{"sequence": "UCCUGGAACUGCUAGCAUAGUAUUUAGUUA", "pre-steady-state target cleavage rate": "0.215 ± 0.015"}
{"sequence": "UCCUGGAUGUCGAACCAUCGUAUUUAGUUA", "pre-steady-state target cleavage rate": "0.000454 ± 0.012"}
{"sequence": "UCCUGGUAGAGCUUGCAUAGAAUUUAGUUA", "pre-steady-state target cleavage rate": "0.0311 ± 0.0054"}
{"sequence": "UCCUGGAUGUCGAAGCUUAGUUUUUAGUUA", "pre-steady-state target cleavage rate": "0.000508 ± 0.016"}
{"tested_on": "MILI (PIWIL2) piRISC loaded with L1MC piRNA (26 nt)", "assay": "pre-steady-state target cleavage rate (min^-1); MIWI and MILI are mouse PIWI proteins and EfPiwi is from a freshwater sponge; tags in brackets are library labels; higher = faster piRNA-guided slicing of the target", "details": "guide: L1MC piRNA 5'p-UAACUAAAUACUAUGCAAGCUGUAGG; auxiliary factor: none (no GTSF1)", "experimental": "as §1"}
{"sequence": "UCCUGGAUGUCGUUGCAUAGUAUUUUCAAA [g6:g18:cont:t1A]", "pre-steady-state target cleavage rate": "0.000721 ± 0.0081"}
{"sequence": "UCCUGGAUCAGCUUCGAUAGUAUUUAGUAA", "pre-steady-state target cleavage rate": "0.00109 ± 0.0076"}
{"sequence": "UCCUGGAACAGCUUGCAUACUAUUUAGAAA", "pre-steady-state target cleavage rate": "0.00115 ± 0.0042"}
{"sequence": "UCCUGGAUGUCGAUCCAUAGUAUUUAGUUA", "pre-steady-state target cleavage rate": "0.00062 ± 0.0082"}
{"sequence": "UCCUGGAUGAGCUUGCAAAGUAUUUAGUUA", "pre-steady-state target cleavage rate": "0.00483 ± 0.0028"}
{"sequence": "UCCUGGAUGUCGAACGUAUCUAUAUUGUUA", "pre-steady-state target cleavage rate": "< 0.0001"}
{"sequence": "UCCUGGAUGUCGUUGCAUAGUAUUAUCAAA [g7:g18:cont:t1A]", "pre-steady-state target cleavage rate": "0.000473 ± 0.011"}
{"sequence": "UCCUGGAUGAGCUUGCAUACUAUUAAGUUA", "pre-steady-state target cleavage rate": "0.000997 ± 0.0068"}
{"sequence": "UCCUGGAUGUCGAACCAUAUUAUUUAGUUA", "pre-steady-state target cleavage rate": "0.000258 ± 0.015"}
{"sequence": "UCCUGGAUGUCGAUGACAUAGUAUUUAGUUA", "pre-steady-state target cleavage rate": "0.000975 ± 0.0043"}
{"sequence": "UCCUGGAUCAGCUUGCAUAGUUUUUAGAUA", "pre-steady-state target cleavage rate": "0.00137 ± 0.0049"}
{"sequence": "UCCUGGAUGUCGUUGGAUAGUAAUUAGUUA", "pre-steady-state target cleavage rate": "0.000523 ± 0.011"}
{"sequence": "UCCUGGUACAGCUAGCAUAGUUUUUAGUUA", "pre-steady-state target cleavage rate": "0.00928 ± 0.0026"}
{"sequence": "UCCUGGAUCACCUUGCAUAGUAUUUACAAA", "pre-steady-state target cleavage rate": "0.00242 ± 0.0033"}
{"sequence": "UCCUCCUACAGCUUGCAAUGUAUUUACAAA", "pre-steady-state target cleavage rate": "0.00095 ± 0.0055"}
{"sequence": "UCCUGCUACAUCUUGCAUAGUAUUUAGUUA", "pre-steady-state target cleavage rate": "0.0095 ± 0.0022"}
{"sequence": "UCCUGGAACUGCUAGCAUAGUAUUUAGUUA", "pre-steady-state target cleavage rate": "0.00611 ± 0.0019"}
{"sequence": "UCCUGGAUGUCGAACCAUAGGUAUUUAGUUA", "pre-steady-state target cleavage rate": "0.000118 ± 0.021"}
{"sequence": "UCCUCCUACAGGAUGCAUAGUAUUUUCAAA", "pre-steady-state target cleavage rate": "0.000604 ± 0.0087"}
{"sequence": "UCCUGCUACAGCUACGAUAGUAUUUAGAAA", "pre-steady-state target cleavage rate": "0.000656 ± 0.0077"}
{"sequence": "UCCUGGAUGUGCUUGCAUACUAUUAAGUUA", "pre-steady-state target cleavage rate": "0.000566 ± 0.013"}
{"sequence": "UCCUGGAUGUCGAACCAUCGUAUUUAGUUA", "pre-steady-state target cleavage rate": "0.000426 ± 0.0092"}
{"sequence": "UCCUGGAUGUCGAACGUAUCUAUUUAGUGUA", "pre-steady-state target cleavage rate": "0.000142 ± 0.03"}
{"sequence": "UCCUGGUAGAGCUUGCAUAGAAUUUAGUUA", "pre-steady-state target cleavage rate": "0.0029 ± 0.0032"}
{"sequence": "UCCUGGAUGUCGAAGCUUAGUUUUUAGUUA", "pre-steady-state target cleavage rate": "0.000367 ± 0.013"}
{"sequence": "UCCUGGAUGAGCUUGCAUAGUAUAUUGUUA", "pre-steady-state target cleavage rate": "0.00177 ± 0.0047"}
{"sequence": "UCCUGGAUGACCUUGCAUAGUAUUUACUUA", "pre-steady-state target cleavage rate": "0.00248 ± 0.0044"}
{"sequence": "UCCUGGAUGUCGAACCAUAGUAAUAAGUUA", "pre-steady-state target cleavage rate": "0.000235 ± 0.016"}
